According to patent publication US20250325675A1, “APTAMER, CONJUGATE, COMPOSITION, METHOD FOR PREPARING SAME, AND USE THEREOF” (priority 2022, published 2025):
Some entries share one result that the patent states for a list of compounds. Strand notation (5' to 3'): a small letter for the sugar, then the base; units joined by * are phosphorothioate-linked, units joined directly phosphodiester-linked; [ ] holds rarer units or linkages, { } end groups; capitals alone tell only the bases. {MMAE} = monomethyl auristatin E payload; m = 2'-O-methyl

Test system: U118MG subcutaneous tumor
Test: In vivo activity in U118MG subcutaneous tumor model mice (Experimental Example 24)
Conditions: experimental endpoint D72; dose equivalent to 0.1 mg/kg MMAE, subcutaneous D8, D12, D15, D19

Substance: MMAE-CmUmGmCmUmUmCmAmGmAmCmGmUmGmUmUmAmGmCmUmUm ({MMAE}-mCmUmGmCmUmUmCmAmGmAmCmGmUmGmUmUmAmGmCmUmU) [conjugate 42]
- decrease of tumor weight compared with test group 24a (MMAE only): at least 58%

Substance: MMAE-CmUmGmGmAmGmUmUmCmAmGmAmCmCmGmUmGmUmGmCmUmCmUmUm (CUGGAGUUCAGACCGUGUGCUCUU; all 2'-O-methyl, 5' {MMAE}, backbone not given here) [conjugate 41]
- decrease of tumor weight compared with test group 24a (MMAE only): at least 58%

Substance: MMAE-CmUmGmGmAmGmUmUmCmAmGmAmCmGmUmGmUmUmGmCmUmCmUmUmCmCmGmAmUmCmUmCm (CUGGAGUUCAGACGUGUUGCUCUUCCGAUCUC; all 2'-O-methyl, 5' {MMAE}, backbone not given here) [conjugate 20]
- decrease of tumor weight compared with test group 24a (MMAE only): at least 58%

Substance: MMAE-CmUmGmGmAmGmUmUmCmAmGmAmCmGmUmUmGmUmGmCmUmCmUmUm (CUGGAGUUCAGACGUUGUGCUCUU; all 2'-O-methyl, 5' {MMAE}, backbone not given here) [conjugate 39]
- decrease of tumor weight compared with test group 24a (MMAE only): at least 58%
